Experimental data as given in the supplement of paper PMC8728848.
Some of the results follow.

What was measured:
Test in all cases: glycan array binding signal (z-score within array); higher = stronger binding
Conditions in all cases: glycan notation: IUPAC condensed, linker removed
Fuc(a1-2)Gal = target: Fuc(a1-2)Gal
Procedure, shortened: (§1)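 Arrays were curated from the Consortium for Functional Glycomics database, 3228 in total, and kept only where the protein sequence was available. Binding is expressed as a within-array Z-score. This score was averaged across arrays of the same protein sequence at different concentrations or buffers and across linkers, and negative values can be read as non-binding.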

Fuc(a1-2)Gal(b1-3)GalNAc = target: Fuc(a1-2)Gal(b1-3)GalNAc
Procedure, shortened: as §1

[1] = target: Fuc(a1-2)Gal(b1-3)GalNAc(a1-3)[Fuc(a1-2)]Gal(b1-4)Glc
Procedure, shortened: as §1

[2] = target: Fuc(a1-2)Gal(b1-3)GalNAc(a1-3)[Fuc(a1-2)]Gal(b1-4)GlcNAc
Procedure, shortened: as §1

[3] = target: Fuc(a1-2)Gal(b1-3)GalNAc(b1-3)Gal
Procedure, shortened: as §1

[4] = target: Fuc(a1-2)Gal(b1-3)GalNAc(b1-3)Gal(a1-4)Gal(b1-4)Glc
Procedure, shortened: as §1

[5] = target: Fuc(a1-2)Gal(b1-3)GalNAc(b1-4)[Neu5Ac(a2-3)]Gal(b1-4)Glc
Procedure, shortened: as §1

Fuc(a1-2)Gal(b1-3)GlcNAc = target: Fuc(a1-2)Gal(b1-3)GlcNAc
Procedure, shortened: as §1

[6] = target: Fuc(a1-2)Gal(b1-3)GlcNAc(b1-2)Man(a1-3)[Fuc(a1-2)Gal(b1-3)GlcNAc(b1-2)Man(a1-6)]Man(b1-4)GlcNAc(b1-4)GlcNAc
Procedure, shortened: as §1

[7] = target: Fuc(a1-2)Gal(b1-3)GlcNAc(b1-2)Man(a1-3)[Fuc(a1-2)Gal(b1-3)GlcNAc(b1-2)Man(a1-6)]Man(b1-4)GlcNAc(b1-4)[Fuc(a1-6)]GlcNAc
Procedure, shortened: as §1

[8] = target: Fuc(a1-2)Gal(b1-3)GlcNAc(b1-3)Gal(b1-4)Glc
Procedure, shortened: as §1

[9] = target: Fuc(a1-2)Gal(b1-3)GlcNAc(b1-3)GalNAc
Procedure, shortened: as §1

[10] = target: Fuc(a1-2)Gal(b1-3)GlcNAc(b1-3)[Fuc(a1-2)Gal(b1-3)GlcNAc(b1-6)]GalNAc
Procedure, shortened: as §1

[11] = target: Fuc(a1-2)Gal(b1-3)GlcNAc(b1-3)[Fuc(a1-3)[Gal(b1-4)]GlcNAc(b1-6)]Gal(b1-4)Glc
Procedure, shortened: as §1

[12] = target: Fuc(a1-2)Gal(b1-3)GlcNAc(b1-3)[Gal(b1-4)GlcNAc(b1-6)]Gal(b1-4)Glc
Procedure, shortened: as §1

[13] = target: Fuc(a1-2)Gal(b1-3)GlcNAc(b1-3)[Neu5Ac(a2-6)Gal(b1-4)GlcNAc(b1-6)]Gal(b1-4)Glc
Procedure, shortened: as §1

[14] = target: Fuc(a1-2)Gal(b1-3)GlcNAc6S
Procedure, shortened: as §1

[15] = target: Fuc(a1-2)Gal(b1-3)[Fuc(a1-4)]GlcNAc
Procedure, shortened: as §1

[16] = target: Fuc(a1-2)Gal(b1-3)[Fuc(a1-4)]GlcNAc(b1-2)Man(a1-3)[Fuc(a1-2)Gal(b1-3)[Fuc(a1-4)]GlcNAc(b1-2)Man(a1-3)]Man(b1-4)GlcNAc(b1-4)GlcNAc
Procedure, shortened: as §1

[17] = target: Fuc(a1-2)Gal(b1-3)[Fuc(a1-4)]GlcNAc(b1-2)Man(a1-3)[Fuc(a1-2)Gal(b1-3)[Fuc(a1-4)]GlcNAc(b1-2)Man(a1-6)]Man(b1-4)GlcNAc(b1-4)GlcNAc
Procedure, shortened: as §1

[18] = target: Fuc(a1-2)Gal(b1-3)[Fuc(a1-4)]GlcNAc(b1-2)Man(a1-3)[Fuc(a1-2)Gal(b1-3)[Fuc(a1-4)]GlcNAc(b1-2)Man(a1-6)]Man(b1-4)GlcNAc(b1-4)[Fuc(a1-6)]GlcNAc(b1-4)[Fuc(a1-6)]GlcNAc
Procedure, shortened: as §1

[19] = target: Fuc(a1-2)Gal(b1-3)[Fuc(a1-4)]GlcNAc(b1-3)[Fuc(a1-3)[Gal(b1-4)]GlcNAc(b1-6)]Gal(b1-4)Glc
Procedure, shortened: as §1

[20] = target: Fuc(a1-2)Gal(b1-3)[Fuc(a1-4)]GlcNAc(b1-3)[Gal(b1-4)GlcNAc(b1-6)]Gal(b1-4)Glc
Procedure, shortened: as §1

[21] = target: Fuc(a1-2)Gal(b1-4)Fuc(a1-3)]GlcNAc(b1-2)Man(a1-3)[Fuc(a1-2)Gal(b1-4)[Fuc(a1-3)]GlcNAc(b1-2)Man(a1-6)]Man(b1-4)GlcNAc(b1-4)GlcNAc
Procedure, shortened: as §1

Fuc(a1-2)Gal(b1-4)Glc = target: Fuc(a1-2)Gal(b1-4)Glc
Procedure, shortened: as §1

Fuc(a1-2)Gal(b1-4)Glc6S = target: Fuc(a1-2)Gal(b1-4)Glc6S
Procedure, shortened: as §1

Fuc(a1-2)Gal(b1-4)GlcNAc = target: Fuc(a1-2)Gal(b1-4)GlcNAc
Procedure, shortened: as §1

[22] = target: Fuc(a1-2)Gal(b1-4)GlcNAc(b1-2)Man
Procedure, shortened: as §1

[23] = target: Fuc(a1-2)Gal(b1-4)GlcNAc(b1-2)Man(a1-3)[Fuc(a1-2)Gal(b1-4)GlcNAc(b1-2)Man(a1-6)]Man(b1-4)GlcNAc(b1-4)GlcNAc
Procedure, shortened: as §1

[24] = target: Fuc(a1-2)Gal(b1-4)GlcNAc(b1-2)Man(a1-3)[Fuc(a1-2)Gal(b1-4)GlcNAc(b1-2)Man(a1-6)]Man(b1-4)GlcNAc(b1-4)[Fuc(a1-6)]GlcNAc
Procedure, shortened: as §1

B1: Gal 12 (Homo sapiens), Q96DT0 (protein)
chain: MSQPSGGRAPGTRIYSWSCPTVMSPGEKLDPIPDSFILQPPVFHPVVPYVTTIFGGLHAGKMVMLQGVVPLDAHRFQVDFQCGCSLCPRPDIAFHFNPRFHTTKPHVICNTLHGGRWQREARWPHLALRRGSSFLILFLFGNEEVKVSVNGQHFLHFRYRLPLSHVDTLGIFGDILVEAVGFLNINPFVEGSREYPAGHPFLLMSPRLEVPCSHALPQGLSPGQVIIVRGLVLQEPKHFTVSLRDQAAHAPVTLRASFADRTLAWISRWGQKKLISAPFLFYPQRFFEVLLLFQEGGLKLALNGQGLGATSMNQQALEQLRELRISGSVQLYCVHS
glycan array binding signal (z-score) (Fuc(a1-2)Gal): -0.932 | glycan array binding signal (z-score) (Fuc(a1-2)Gal(b1-3)GalNAc): 0.475 | glycan array binding signal (z-score) [1]: -0.382 | glycan array binding signal (z-score) [2]: -0.299 | glycan array binding signal (z-score) [3]: -0.314 | glycan array binding signal (z-score) [4]: 0.096 | glycan array binding signal (z-score) [5]: 0.527 | glycan array binding signal (z-score) (Fuc(a1-2)Gal(b1-3)GlcNAc): -0.149 | glycan array binding signal (z-score) [6]: -0.635 | glycan array binding signal (z-score) [7]: 0.475 | glycan array binding signal (z-score) [8]: -0.447 | glycan array binding signal (z-score) [9]: -0.114 | glycan array binding signal (z-score) [10]: -0.517 | glycan array binding signal (z-score) [11]: -0.098 | glycan array binding signal (z-score) [12]: -0.387 | glycan array binding signal (z-score) [13]: -0.876 | glycan array binding signal (z-score) [14]: 2.29 | glycan array binding signal (z-score) [15]: 0.044 | glycan array binding signal (z-score) [16]: -0.275 | glycan array binding signal (z-score) [17]: 6.26 | glycan array binding signal (z-score) [18]: 0.502 | glycan array binding signal (z-score) [19]: -0.45 | glycan array binding signal (z-score) [20]: -0.306 | glycan array binding signal (z-score) [21]: -0.597 | glycan array binding signal (z-score) (Fuc(a1-2)Gal(b1-4)Glc): -0.043 | glycan array binding signal (z-score) (Fuc(a1-2)Gal(b1-4)Glc6S): 0.11 | glycan array binding signal (z-score) (Fuc(a1-2)Gal(b1-4)GlcNAc): -0.158 | glycan array binding signal (z-score) [22]: 0.071 | glycan array binding signal (z-score) [23]: -0.766 | glycan array binding signal (z-score) [24]: -0.658
